Earlier results in patent US20240342348A1, “MEDICAL DEVICES INCLUDING THERAPEUTIC COATINGS FOR LOCAL DELIVERY OF A DIRECT ANTICOAGULANT” (Boston Scientific Scimed, Inc., priority 2023, published 2024).
Some of these results come from one statement about several compounds together.

Details: crystalline drug; cited from earlier work

## CO[C@H]1C[C@@H]2CC[C@@H](C)[C@@](O)(O2)C(=O)C(=O)N2CCCC[C@H]2C(=O)O[C@H]([C@H](C)C[C@@H]2CC[C@@H](OCCO)[C@H](OC)C2)CC(=O)[C@H](C)/C=C(\C)[C@@H](O)[C@@H](OC)C(=O)[C@H](C)C[C@H](C)/C=C/C=C/C=C/1C [everolimus, 40-O-(2-Hydroxyethyl) rapamycin]
  solubility in water: 0.2-0.5 μg drug per mL water
